{
  "source": "patent US20250332109A1",
  "about": "(Veradermics, Incorporated, priority 2024, published 2025)",
  "key": {"[1]": {"system": "person with androgenetic alopecia", "assay": "Case study: person with androgenetic alopecia and hypertension treated with oral minoxidil", "settings": "0.625 mg four times a day; patient-reported"}, "[2]": {"system": "person with androgenetic alopecia", "settings": "1.25 mg QID; patient-reported"}},
  "note": "Where two headings read alike, the source gives them in different places. At least one structure is not confirmed: it was looked up by name or label, or the drawing left a doubt.",
  "data": [
    {"smiles": "Nc1cc(N2CCCCC2)nc(N)[n+]1[O-]", "note": "[minoxidil]", "values": [
      {"measurement": "improvement in androgenetic alopecia (subjective hair thickness and hair density)", "setting": "[1]", "value": "improvement in their androgenetic alopecia"},
      {"measurement": "improvement in androgenetic alopecia (subjective hair thickness and hair density)", "setting": "[2]", "value": "improvement in their androgenetic alopecia"}
    ]}
  ]
}
